# Source: publication PMC9443943
# Target: mouse Tm4sf5-Strep on sEVs from AML12 cells (AML12-sEV^Tm4sf5-Strep) (mouse)
# Assay: co-IP; sEVs from AML12 cells stably transfected with Tm4sf5-Strep (with or without 1 uM TSAHC pretreatment) given to differentiated primary WT BAT cells; extracts precipitated with Strep-agarose beads; blots with Strep-MAB-classic-HRP and Glut4 antibodies
binder,measurement,value
"Glut4 of differentiated primary mouse brown adipose (BAT) cells (protein, UniProt P14142 1-509) MPSGFQQIGSDDGEPPRQRVTGTLVLAVFSAVLGSLQFGYNIGVINAPQKVIEQSYNATWLGRQGPGGPDSIPQGTLTTLWALSVAIFSVGGMISSFLIGIISQWLGRKRAMLANNVLAVLGGALMGLANAAASYEILILGRFLIGAYSGLTSGLVPMYVGEIAPTHLRGALGTLNQLAIVIGILVAQVLGLESMLGTATLWPLLLALTVLPALLQLILLPFCPESPRYLYIIRNLEGPARKSLKRLTGWADVSDALAELKDEKRKLERERPMSLLQLLGSRTHRQPLIIAVVLQLSQQLSGINAVFYYSTSIFESAGVGQPAYATIGAGVVNTVFTLVSVLLVERAGRRTLHLLGLAGMCGCAILMTVALLLLERVPAMSYVSIVAIFGFVAFFEIGPGPIPWFIVAELFSQGPRPAAMAVAGFSNWTCNFIVGMGFQYVADAMGPYVFLLFAVLLLGFFIFTFLKVPETRGRTFDQISAAFRRTPSLLEQEVKPSTELEYLGPDEND",binding,binds

# These are yes or no findings as the source states them, for the method shown. In cells and extracts the contact can be indirect. A result given as binding can be weak or reduced; the word gives no strength.
